Assay results reported in the supplement of paper PMC10849652.
This is one part of the list.

The chains behind the UniProt entries cited, without tags or fusion partners. Where a name states a change or a piece, a line headed by the entry shows the natural chain unless it says otherwise.
UniProt P42680: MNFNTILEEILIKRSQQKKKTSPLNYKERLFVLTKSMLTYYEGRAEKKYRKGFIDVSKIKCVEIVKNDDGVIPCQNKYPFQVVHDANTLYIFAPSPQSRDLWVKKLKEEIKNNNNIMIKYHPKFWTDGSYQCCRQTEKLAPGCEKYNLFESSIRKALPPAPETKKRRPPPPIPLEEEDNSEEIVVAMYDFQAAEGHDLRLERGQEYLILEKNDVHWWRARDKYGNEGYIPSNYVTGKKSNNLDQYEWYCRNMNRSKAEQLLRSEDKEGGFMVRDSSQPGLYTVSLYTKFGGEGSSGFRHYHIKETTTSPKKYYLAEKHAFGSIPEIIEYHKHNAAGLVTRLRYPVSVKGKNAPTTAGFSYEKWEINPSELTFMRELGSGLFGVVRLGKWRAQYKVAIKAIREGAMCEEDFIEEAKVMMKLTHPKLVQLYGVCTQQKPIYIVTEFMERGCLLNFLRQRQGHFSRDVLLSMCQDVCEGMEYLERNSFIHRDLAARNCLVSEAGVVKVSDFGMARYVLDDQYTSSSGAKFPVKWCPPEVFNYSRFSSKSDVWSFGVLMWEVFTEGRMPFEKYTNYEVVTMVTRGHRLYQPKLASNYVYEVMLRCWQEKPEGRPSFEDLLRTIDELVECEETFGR
UniProt Q8IYN2: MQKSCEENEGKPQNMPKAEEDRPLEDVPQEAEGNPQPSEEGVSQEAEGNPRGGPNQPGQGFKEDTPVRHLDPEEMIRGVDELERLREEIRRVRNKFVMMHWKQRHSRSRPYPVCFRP
UniProt P15884: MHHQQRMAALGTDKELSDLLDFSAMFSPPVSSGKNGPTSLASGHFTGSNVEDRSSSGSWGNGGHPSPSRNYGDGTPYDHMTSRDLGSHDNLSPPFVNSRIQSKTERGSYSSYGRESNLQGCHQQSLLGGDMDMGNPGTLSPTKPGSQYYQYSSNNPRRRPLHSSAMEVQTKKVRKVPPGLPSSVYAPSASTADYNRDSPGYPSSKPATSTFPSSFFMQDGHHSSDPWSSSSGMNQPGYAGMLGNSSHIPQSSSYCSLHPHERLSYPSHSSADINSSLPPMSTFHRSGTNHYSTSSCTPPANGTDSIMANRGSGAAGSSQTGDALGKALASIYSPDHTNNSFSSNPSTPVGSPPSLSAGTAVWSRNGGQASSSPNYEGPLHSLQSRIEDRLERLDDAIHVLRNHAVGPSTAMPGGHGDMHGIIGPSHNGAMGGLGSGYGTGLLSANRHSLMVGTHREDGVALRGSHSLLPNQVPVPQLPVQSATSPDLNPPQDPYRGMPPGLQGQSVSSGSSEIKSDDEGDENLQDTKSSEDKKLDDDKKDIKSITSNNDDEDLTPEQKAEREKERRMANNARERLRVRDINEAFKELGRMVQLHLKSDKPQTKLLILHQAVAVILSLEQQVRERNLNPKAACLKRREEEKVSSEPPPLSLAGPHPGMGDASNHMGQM
UniProt Q9BXI6: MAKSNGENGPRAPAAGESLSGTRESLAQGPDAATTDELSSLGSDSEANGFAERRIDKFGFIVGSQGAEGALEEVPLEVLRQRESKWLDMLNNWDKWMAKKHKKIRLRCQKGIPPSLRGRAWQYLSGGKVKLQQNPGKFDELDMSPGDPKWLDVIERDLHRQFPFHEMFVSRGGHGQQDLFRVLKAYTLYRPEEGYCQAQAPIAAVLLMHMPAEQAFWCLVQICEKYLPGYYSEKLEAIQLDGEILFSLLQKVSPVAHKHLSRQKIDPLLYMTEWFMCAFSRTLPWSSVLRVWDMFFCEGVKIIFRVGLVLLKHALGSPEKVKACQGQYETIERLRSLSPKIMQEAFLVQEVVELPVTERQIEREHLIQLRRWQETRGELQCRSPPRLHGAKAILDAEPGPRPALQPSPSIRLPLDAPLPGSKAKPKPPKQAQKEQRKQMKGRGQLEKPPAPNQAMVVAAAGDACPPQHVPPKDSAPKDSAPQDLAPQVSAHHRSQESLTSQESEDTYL
UniProt Q9H6P5: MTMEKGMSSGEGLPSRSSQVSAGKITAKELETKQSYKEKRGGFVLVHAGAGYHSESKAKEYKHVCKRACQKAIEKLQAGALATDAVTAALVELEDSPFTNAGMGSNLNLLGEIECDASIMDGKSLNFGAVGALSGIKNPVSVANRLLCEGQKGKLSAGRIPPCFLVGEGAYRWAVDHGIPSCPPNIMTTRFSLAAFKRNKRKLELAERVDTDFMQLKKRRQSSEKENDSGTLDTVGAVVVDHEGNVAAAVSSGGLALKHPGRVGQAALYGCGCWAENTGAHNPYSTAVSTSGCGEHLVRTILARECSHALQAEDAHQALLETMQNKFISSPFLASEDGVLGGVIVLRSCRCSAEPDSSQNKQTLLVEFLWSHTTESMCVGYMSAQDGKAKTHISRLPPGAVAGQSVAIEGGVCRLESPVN
UniProt P20226, whole entry, looked up: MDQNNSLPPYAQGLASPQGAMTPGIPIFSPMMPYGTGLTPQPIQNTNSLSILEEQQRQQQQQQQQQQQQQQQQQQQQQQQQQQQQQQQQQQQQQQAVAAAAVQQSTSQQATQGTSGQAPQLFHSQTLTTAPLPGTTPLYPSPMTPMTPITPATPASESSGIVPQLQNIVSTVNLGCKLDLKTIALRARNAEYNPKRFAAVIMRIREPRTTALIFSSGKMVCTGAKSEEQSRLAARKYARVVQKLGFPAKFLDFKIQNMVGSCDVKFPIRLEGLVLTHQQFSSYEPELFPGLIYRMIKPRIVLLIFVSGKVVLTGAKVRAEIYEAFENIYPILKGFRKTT
UniProt Q9UHQ7: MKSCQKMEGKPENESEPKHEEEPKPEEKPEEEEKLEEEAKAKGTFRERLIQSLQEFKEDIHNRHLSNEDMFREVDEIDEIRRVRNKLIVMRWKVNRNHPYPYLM
UniProt P54274: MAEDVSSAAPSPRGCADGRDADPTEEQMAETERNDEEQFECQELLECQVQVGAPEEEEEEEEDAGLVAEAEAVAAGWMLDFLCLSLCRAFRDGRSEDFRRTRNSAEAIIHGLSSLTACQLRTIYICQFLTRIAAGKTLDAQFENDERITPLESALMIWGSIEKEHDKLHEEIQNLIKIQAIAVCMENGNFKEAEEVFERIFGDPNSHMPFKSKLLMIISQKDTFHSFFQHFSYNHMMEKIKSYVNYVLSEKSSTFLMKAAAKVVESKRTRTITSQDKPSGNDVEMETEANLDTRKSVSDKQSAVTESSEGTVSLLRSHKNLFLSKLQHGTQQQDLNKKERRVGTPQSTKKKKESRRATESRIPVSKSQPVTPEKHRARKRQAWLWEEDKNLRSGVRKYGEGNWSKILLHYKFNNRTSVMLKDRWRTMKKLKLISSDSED
UniProt P20061: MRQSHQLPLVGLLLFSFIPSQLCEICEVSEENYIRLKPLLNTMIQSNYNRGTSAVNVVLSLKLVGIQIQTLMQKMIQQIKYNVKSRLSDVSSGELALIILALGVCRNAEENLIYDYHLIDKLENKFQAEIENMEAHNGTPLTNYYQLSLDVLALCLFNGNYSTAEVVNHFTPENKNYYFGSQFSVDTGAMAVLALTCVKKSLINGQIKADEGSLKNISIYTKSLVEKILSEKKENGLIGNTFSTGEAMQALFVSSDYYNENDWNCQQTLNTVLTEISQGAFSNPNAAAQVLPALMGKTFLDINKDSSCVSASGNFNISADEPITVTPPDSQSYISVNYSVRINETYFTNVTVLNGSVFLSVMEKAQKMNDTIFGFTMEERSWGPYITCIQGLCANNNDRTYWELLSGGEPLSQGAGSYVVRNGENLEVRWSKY
UniProt Q99594, whole entry, looked up: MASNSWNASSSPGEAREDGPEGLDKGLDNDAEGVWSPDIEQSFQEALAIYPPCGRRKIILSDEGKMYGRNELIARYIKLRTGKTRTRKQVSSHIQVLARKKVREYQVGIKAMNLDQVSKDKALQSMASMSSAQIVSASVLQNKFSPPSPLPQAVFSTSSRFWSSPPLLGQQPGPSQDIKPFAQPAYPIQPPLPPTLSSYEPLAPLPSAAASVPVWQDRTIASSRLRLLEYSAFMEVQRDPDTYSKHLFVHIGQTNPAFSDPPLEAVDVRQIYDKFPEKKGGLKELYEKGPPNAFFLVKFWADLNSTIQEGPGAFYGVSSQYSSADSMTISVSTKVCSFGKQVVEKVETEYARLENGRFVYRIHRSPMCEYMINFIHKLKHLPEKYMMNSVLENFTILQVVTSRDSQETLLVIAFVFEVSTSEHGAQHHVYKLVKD
UniProt Q13569: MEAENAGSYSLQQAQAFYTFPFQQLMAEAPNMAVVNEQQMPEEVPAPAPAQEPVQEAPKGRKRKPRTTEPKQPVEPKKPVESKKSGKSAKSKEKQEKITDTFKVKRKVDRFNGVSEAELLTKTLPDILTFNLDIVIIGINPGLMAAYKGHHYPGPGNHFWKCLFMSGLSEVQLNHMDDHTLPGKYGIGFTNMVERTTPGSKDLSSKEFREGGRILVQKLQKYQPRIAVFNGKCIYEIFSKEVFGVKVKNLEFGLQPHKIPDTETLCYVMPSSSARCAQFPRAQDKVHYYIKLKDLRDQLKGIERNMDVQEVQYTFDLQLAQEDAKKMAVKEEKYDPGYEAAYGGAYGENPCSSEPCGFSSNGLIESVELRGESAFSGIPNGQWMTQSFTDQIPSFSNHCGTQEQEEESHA
UniProt Q9UGU0: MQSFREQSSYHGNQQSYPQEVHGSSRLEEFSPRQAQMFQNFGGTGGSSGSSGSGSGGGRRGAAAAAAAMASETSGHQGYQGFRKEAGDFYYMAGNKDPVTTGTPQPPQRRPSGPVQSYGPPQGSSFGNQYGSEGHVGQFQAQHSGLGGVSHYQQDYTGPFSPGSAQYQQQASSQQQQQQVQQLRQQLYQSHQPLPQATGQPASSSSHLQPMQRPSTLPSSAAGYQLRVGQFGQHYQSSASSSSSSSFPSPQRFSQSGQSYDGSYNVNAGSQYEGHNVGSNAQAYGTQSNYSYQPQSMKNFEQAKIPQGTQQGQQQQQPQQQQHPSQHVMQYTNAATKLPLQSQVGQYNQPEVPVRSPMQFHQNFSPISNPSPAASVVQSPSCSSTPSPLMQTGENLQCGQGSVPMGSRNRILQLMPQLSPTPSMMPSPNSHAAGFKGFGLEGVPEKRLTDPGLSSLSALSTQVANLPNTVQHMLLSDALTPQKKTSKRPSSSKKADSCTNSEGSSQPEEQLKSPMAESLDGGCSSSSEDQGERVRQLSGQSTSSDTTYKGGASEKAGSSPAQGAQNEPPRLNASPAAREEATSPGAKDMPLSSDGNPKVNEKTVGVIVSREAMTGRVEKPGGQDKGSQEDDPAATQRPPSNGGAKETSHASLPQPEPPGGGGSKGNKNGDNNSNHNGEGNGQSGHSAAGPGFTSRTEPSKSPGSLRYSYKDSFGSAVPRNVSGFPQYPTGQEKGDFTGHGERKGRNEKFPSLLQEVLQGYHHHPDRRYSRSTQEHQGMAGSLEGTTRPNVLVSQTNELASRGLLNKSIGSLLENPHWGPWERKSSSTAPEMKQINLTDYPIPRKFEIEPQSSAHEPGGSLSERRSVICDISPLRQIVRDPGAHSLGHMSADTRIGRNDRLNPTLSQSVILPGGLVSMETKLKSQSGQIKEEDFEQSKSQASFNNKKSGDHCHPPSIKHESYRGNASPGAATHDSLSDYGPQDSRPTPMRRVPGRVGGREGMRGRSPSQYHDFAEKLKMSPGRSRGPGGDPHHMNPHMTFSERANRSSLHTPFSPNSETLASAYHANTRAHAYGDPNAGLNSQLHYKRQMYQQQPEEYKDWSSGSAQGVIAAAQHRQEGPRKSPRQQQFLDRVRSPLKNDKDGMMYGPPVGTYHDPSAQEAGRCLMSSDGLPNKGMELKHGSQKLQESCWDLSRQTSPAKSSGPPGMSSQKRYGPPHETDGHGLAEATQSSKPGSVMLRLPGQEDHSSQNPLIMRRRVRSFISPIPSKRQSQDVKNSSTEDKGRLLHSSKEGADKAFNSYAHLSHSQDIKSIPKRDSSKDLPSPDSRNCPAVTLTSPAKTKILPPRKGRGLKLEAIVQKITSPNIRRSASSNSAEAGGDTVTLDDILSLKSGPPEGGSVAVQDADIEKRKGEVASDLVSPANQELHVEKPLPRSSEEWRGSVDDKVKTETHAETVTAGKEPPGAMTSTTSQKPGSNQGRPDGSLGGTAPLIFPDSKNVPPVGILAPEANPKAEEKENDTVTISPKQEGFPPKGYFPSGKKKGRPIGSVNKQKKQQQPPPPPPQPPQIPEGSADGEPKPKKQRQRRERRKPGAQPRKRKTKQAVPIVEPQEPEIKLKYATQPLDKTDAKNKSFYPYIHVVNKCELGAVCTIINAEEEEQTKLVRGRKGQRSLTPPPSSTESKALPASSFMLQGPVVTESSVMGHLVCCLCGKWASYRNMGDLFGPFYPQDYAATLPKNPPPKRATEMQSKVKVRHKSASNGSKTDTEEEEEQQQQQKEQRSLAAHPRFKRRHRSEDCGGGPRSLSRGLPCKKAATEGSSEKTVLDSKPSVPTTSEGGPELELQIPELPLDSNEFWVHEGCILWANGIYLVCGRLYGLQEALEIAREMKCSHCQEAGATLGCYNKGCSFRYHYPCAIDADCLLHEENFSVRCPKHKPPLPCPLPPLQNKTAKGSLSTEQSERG

Assays:
Assay in all cases: log2 fold change, soluble protein after heating vs DMSO (PISA); higher = thermal stabilisation; K562 lysate, 10 uM; active = over 0.2 and 3.5 SD of the protein, either way, in both replicates (recomputed)
[1] = compound: C1=CC2=NC=CN=C2C=C1/C=C/3\C(=O)NC(=O)S3
Method in brief: (§1)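 The values are log-two fold changes in thermal stability compared with solvent controls and come from duplicates. They were obtained by TMTpro 16plex LC-MS/MS, with channel sums equalised, on the supernatant after 21,000xg for 90 min. That supernatant came from crude K562 extract at 1 mg/mL protein treated with 10 μM compound for 30 min, heated for 3 min across 48°C-58°C, pooled and brought to 0.5% NP-40 at 4°C.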

[2] = compound: C1=CC=C(C=C1)C2=NC(=C(N2)C3=CC=NC=C3)C4=CC(=C(C=C4)Cl)O
Method in brief: as §1

[3] = compound: C1CCN(C1)C(=O)NC2=CC=CC(=C2)NC3=NC=C(C(=N3)NCCC4=CN=CN4)Br
Method in brief: as §1

[4] = compound: C1CN(CCC1(CC2=CC=C(C=C2)Cl)N)C3=NC=NC4=C3C=CN4
Method in brief: as §1

IRAK-1-4 Inhibitor I = compound: C1COCCN1CCN2C3=CC=CC=C3N=C2NC(=O)C4=CC(=CC=C4)[N+](=O)[O-] [IRAK-1-4 Inhibitor I]
Method in brief: as §1

[5] = compound: C/C(=N\NC(=O)C1=CC(=CC=C1)S(=O)(=O)N2CCOCC2)/C3=C(C=CC(=C3)Cl)O
Method in brief: as §1

[6] = compound: C1=CC2=C(C=CC(=C2)/C=C\3/C(=O)NC(=NCC4=CC=CS4)S3)N=C1
Method in brief: as §1

[7] = compound: C1=CC=C2C(=C1)C3=NNC4=CC=CC(=C43)C2=O
Method in brief: as §1

erlotinib = compound: C#Cc1cccc(Nc2ncnc3cc(OCCOC)c(OCCOC)cc23)c1 [erlotinib]
Method in brief: as §1

[8] = compound: C1=CC(=CC=C1C2=NC3=C(N2)C=C(C=C3)C(=O)N)OC4=CC=C(C=C4)Cl
Method in brief: as §1

Measured: log2 fold change

TASOR2 (UniProt Q5VWN6)
inactive: [1] -0.137 | [2] -0.004 | [3] -0.025 | [4] -0.138 | IRAK-1-4 Inhibitor I 0.126

TCEAL4 isoform 2 (UniProt Q96EI5)
inactive: [5] -0.082 | [6] -0.094 | [1] -0.15 | [7] -0.081 | [3] 0.041 | [4] -0.022

TEC (UniProt P42680)
inactive: [5] 0.092 | [6] -0.051 | [7] -0.048 | [3] -0.024 | [4] -0.038

TCEAL8 (UniProt Q8IYN2)
inactive: [5] 0.015 | [6] -0.044 | [7] -0.013 | [3] -0.06 | [4] 0.023

TARDBP (UniProt K7EN94)
inactive: [5] 0.293 | [6] -0.12 | [7] -0.12 | [3] 0.001 | [4] -0.19

TCF4 (UniProt P15884)
inactive: [2] 0.005 | [3] 0.234 | [4] -0.165 | IRAK-1-4 Inhibitor I -0.152

TBC1D10A (UniProt Q9BXI6)
inactive: erlotinib -0.004 | [8] -0.071 | [1] -0.06 | [2] 0.01 | IRAK-1-4 Inhibitor I -0.014

TASP1 (UniProt Q9H6P5)
inactive: erlotinib -0.013 | [8] -0.017 | [1] -0.102 | [2] -0.022 | [3] -0.062 | [4] 0.092 | IRAK-1-4 Inhibitor I 0.055

TBP (UniProt P20226)
inactive: erlotinib 0.01 | [8] 0.008 | [1] 0.043 | [2] 0.001 | [3] -0.089 | [4] 0.145 | IRAK-1-4 Inhibitor I 0.011

TBXA2R (UniProt P21731)
inactive: erlotinib 0.23 | [8] -0.124 | [1] -0.035 | [2] 0.043 | IRAK-1-4 Inhibitor I 0.058

TBX1 isoform 3 (UniProt O43435)
inactive: [5] -0.094 | [6] 0.135 | [1] 0.097 | [7] -0.007 | [3] 0.027 | [4] 0.118

TET2 (UniProt Q6N021)
inactive: erlotinib 0.22 | [8] 0.116 | [1] -0.053 | [3] -0.057 | [4] 0.057

TCEAL9 (UniProt Q9UHQ7)
inactive: [5] -0.16 | [6] -0.027 | [7] 0.032

TFPI isoform 2 (UniProt P10646)
inactive: [5] 0.01 | [6] 0.113 | [7] -0.171

TBCCD1 (UniProt Q9NVR7)
inactive: erlotinib 0.042 | [8] 0.148 | [2] -0.167 | IRAK-1-4 Inhibitor I -0.111

TEAD4 (UniProt Q15561)
inactive: erlotinib 0.028 | [8] 0.025 | [1] 0.058

TENM4 (UniProt Q6N022)
inactive: [1] -0.334

TERF1 (UniProt P54274)
inactive: [5] -0.031 | [6] 0.029 | [7] -0.037 | [3] -0.058 | [4] -0.081

TGDS (UniProt O95455)
inactive: [1] 0.035

TCOF1 isoform 6 (UniProt Q13428)
inactive: erlotinib -0.106 | [8] 0.033 | [2] -0.053 | IRAK-1-4 Inhibitor I 0.114

TCEA2 (UniProt Q15560)
inactive: [2] -0.124 | [3] 0.02 | [4] -0.071 | IRAK-1-4 Inhibitor I -0.077

TCN1 (UniProt P20061)
inactive: erlotinib -0.061 | [8] 0.066 | [1] -0.036 | [2] 0.017 | [3] -0.082 | [4] 0.291 | IRAK-1-4 Inhibitor I 0

TC2N (UniProt Q8N9U0)
inactive: [5] -0.009 | [6] -0.005 | [7] -0.152 | [3] -0.156 | [4] 0.075

TBKBP1 (UniProt A7MCY6)
inactive: [1] -0.033

TAOK2 (UniProt Q9UL54)
active: [7] 0.729
inactive: [5] 0.006 | [6] -0.034 | [1] 0.072 | [2] -0.031 | [3] 0.038 | [4] 0.058 | IRAK-1-4 Inhibitor I 0.072

TAX1BP1 isoform 2 (UniProt Q86VP1)
inactive: erlotinib -0.018 | [8] -0.042 | [1] 0.138 | [2] -0.079 | IRAK-1-4 Inhibitor I -0.002

TFEB (UniProt P19484)
inactive: [5] -0.174 | [6] -0.042 | [7] 0.106

TCF3 isoform 2 (UniProt P15923)
inactive: erlotinib 0.131 | [8] -0.049 | [2] 0.154 | IRAK-1-4 Inhibitor I -0.249

TCF3 (UniProt X6REB3)
inactive: [5] -0.006 | [6] -0.208 | [7] -0.192

TEAD3 (UniProt Q99594)
inactive: erlotinib -0.248 | [8] -0.075 | [2] -0.03 | [3] 0.244 | [4] -0.019 | IRAK-1-4 Inhibitor I 0.093

TCEAL1 isoform 2 (UniProt Q15170)
inactive: [5] 0.121 | [6] -0.051 | [1] -0.115 | [7] -0.011

TEDC1 (UniProt Q86SX3)
inactive: erlotinib 0.05 | [8] 0.057 | [2] 0.05 | [3] -0.127 | [4] -0.048 | IRAK-1-4 Inhibitor I -0.06

TDG (UniProt Q13569)
inactive: [5] 0.015 | [6] -0.033 | [1] -0.08 | [2] 0.005 | [7] 0.004 | [3] 0.031 | [4] -0.012 | IRAK-1-4 Inhibitor I 0.067

Random excerpt: 2 records from the list, in no set order.
TERF1 (UniProt P54274)
inactive: [5] -0.031 | [6] 0.029 | [7] -0.037 | [3] -0.058 | [4] -0.081

TCOF1 isoform 6 (UniProt Q13428)
inactive: erlotinib -0.106 | [8] 0.033 | [2] -0.053 | IRAK-1-4 Inhibitor I 0.114

The list goes on.

TBCA (UniProt E5RHG6)
inactive: erlotinib -0.111 | [8] -0.147 | [2] -0.04 | IRAK-1-4 Inhibitor I 0.072

TCF20 (UniProt Q9UGU0)
inactive: erlotinib -0.04 | [8] -0.001 | [1] 0.039

Two neighbouring records already listed, quoted:
TENM4 (UniProt Q6N022)
inactive: [1] -0.334

TERF1 (UniProt P54274)
inactive: [5] -0.031 | [6] 0.029 | [7] -0.037 | [3] -0.058 | [4] -0.081

Next part:

TANC2 isoform 2 (UniProt Q9HCD6)
inactive: erlotinib -0.15 | [8] 0.115 | [2] -0.255 | IRAK-1-4 Inhibitor I -0.238

TENT4B isoform 5 (UniProt Q8NDF8)
inactive: erlotinib -0.114 | [8] -0.327 | [1] -0.121 | [2] -0.001 | IRAK-1-4 Inhibitor I -0.047
